Assay results taken from patent US20020045591A1, “Methods and therapeutic compositions for treating cancer” (priority 1998, published 2002).

System: CHO cells
Assay: Triton X-100 fractionation of CHO cells
Type: cell-based
Details: FIG. 3
[1] = CHO cells expressing the derivative

Row | Molecule | fraction of β-catenin detergent-insoluble [1] | fraction of cadherin derivative in Triton X-100-insoluble fraction (stably transfected CHO cells) | fraction of β-catenin Triton-soluble [1] | fraction of cadherin derivative Triton-soluble (stably transfected CHO cells)
1 | N-cadherin: Full length chicken N-cadherin cloned into the pECE expression vector (protein) DWVIPPINLPENSRGPFPQELVRIRSDRDKSLSLRYSVTGPGADQPPTGIFIINPISGQLSVTKPLDREQIASFHLRAHAVDVNGNQVENPIDIVINVIDMNDNRPEFLHQVWNGTVPEGSKPGTYVMTVTAIDADDPNAQNGMLRYRILSQAPSSPSPNMFTINNETGDIITVAAGLDREKVQQYTLIIQATDMEGNPTYGLSNTATAVITVTDVNDNPPEFTAMTFYGEVPENRVDVIVANLTVTDKDQPHTPAWNARYQMTGGDPTGQFTILTDPNSNDGLVTVVKPIDFETNRMFVLTVAAENQVPLAKGIQHPPQSTATVSITVIDVNESPYFVPNPKLVRQEEGLLAGSMLTTFTARDPDRYMQQTSLRYSKLSDPANWLKIDPVNGQITTTAVLDRESIYVQNNMYNATFLASDNGIPPMSGTGTLQIYLLDINDNAPQVNPKEATTCETLQPNAINITAVDPDIDPNAGPFAFELPDSPPSIKRNWTIVRISGDHAQLSLRIRFLEAGIYDVPIVITDSGNPHASSTSVLKVKVCQCDINGDCTDVDRIVGAGLGTGAIIAILLCIIILLILVLMFVVWMKRRDKERQAKQLLIDPEDDVRDNILKYDEEGGGEEDQDYDLSQLQQPDTVEPDAIKPVGIRRLDERPIHAEPQYPVRSAAPHPGDIGDFINEGLKAADNDPTAPPYDSLLVFDYEGSGSTAGSLSSLNSSSSGGEQDYDYLNDWGPRFKKLADMYGGGDD | 72% | 71% |  | 
2 | N-cadherin tail: Cytoplasmic domain of chicken N-cadherin tagged with a Flag epitope (protein, left off: small tags and cut ends) MKRRDKERQAKQLLIDPEDDVRDNILKYDEEGGGEEDQDYDLSQLQQPDTVEPDAIKPVGIRRLDERPIHAEPQYPVRSAAPHPGDIGDFINEGLKAADNDPTAPPYDSLLVFDYEGSGSTAGSLSSLNSSSSGGEQDYDYLNDWGPRFKKLADMYGGGDD |  |  | 64% | 74%
